# Some of the results follow. These are further read-outs of the screen, such as a control signal, another cell line or another target. No call is given for them. Compounds called inactive in the main read-out are mostly missing here. Words in brackets tell the shape of the fitted curve; partial curves, single points and poor fits give uncertain potencies.
# Experiment: qHTS Assay for Lipid Storage Modulators in Drosophila S3 Cells;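 for cell number change: cells counted by Cell Tracker Red CMTPX staining in the red channel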
# Conditions: BODIPY lipid droplet fluorescence, 18-24 h; for cell number change: measured here: cell count max response, cells fed with added oleic acid
# Summary of the method: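 Laser-scanning cytometry quantifies lipid droplet accumulation (500–530 nm total intensity; droplet/cell object ratio) in oleic acid-fed (400 uM added) Drosophila S3 cells treated with a concentration series. 20 uM Triacsin C defined 100% inhibition.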
# [1] = measured here: cell number channel AC50, cells fed with added oleic acid
# [2] = measured here: lipid fluorescence (Fed channel) AC50, cells fed with added oleic acid
SMILES,cell number change [%],AC50 [1],AC50 [2]
CN(C)CCNC(=O)c1ccc(-c2nn(C)c(=O)c3ccccc23)cc1,-4.45,"0.651 µM [falling, single point]","2.31 µM [falling, partial curve]"
Cc1cccc(NC2SC(=O)NC2=O)c1 (stereo not given),-26.5,,
Cc1ccc(C(c2nnnn2C2CCCCC2)N2CCc3ccccc32)cc1 (stereo not given),-32.6,"14.6 µM [falling, single point]","18.4 µM [falling, single point]"
Cc1ccc(/C=N/NC(=O)c2nnn(-c3nonc3N)c2CSc2ccccc2)s1,31.7,,
CCCCCCCOC(=O)C1=C(C)Nc2ncnn2C1c1cccs1 (stereo not given),34.7,"1.64 µM [rising, full curve, poor fit]",
COc1cc(S(=O)(=O)N2CCCCCC2)c(OC)cc1Br,10.2,,"1.84 µM [falling, partial curve, poor fit]"
COc1ccc(C(=O)OC2CCCCC2CN(C)C)cc1 (stereo not given),18.3,,
COC(=O)C1=C(C(=O)OC)[C@@H]2N(C)c3ccccc3[C@@]23C[C@@H](C(=O)OC)N(C(=O)C2CCC2)C3=N1,-17,,"0.13 µM [falling, full curve, poor fit]"
CC1=Nc2cccc([N+](=O)[O-])c2NC(=O)C1,78,"6.51 µM [falling, single point]","6.51 µM [falling, single point]"
COc1ccc(OCC(=O)N/N=C(\C)c2ccc(OC)cc2)cc1,27.5,"1.84 µM [rising, full curve, poor fit]","2.06 µM [rising, partial curve]"
O=C(CCCn1c(=O)c2sccc2n(Cc2cc(=O)n3ccccc3n2)c1=O)NCc1ccco1,,"0.326 µM [rising, full curve, poor fit]","0.366 µM [rising, full curve]"
O=C(CN1CCN(Cc2ccccc2F)C1=O)NCCc1ccc(Cl)cc1,11.1,,"0.0731 µM [rising, full curve, poor fit]"
O=c1ccccn1Cc1c(F)cccc1Cl,46,"8.2 µM [rising, partial curve, poor fit]","6.51 µM [rising, single point]"
CCOc1ccc(CNc2ncnc(N)n2)cc1,,"6.51 µM [rising, single point]",
CCN1C(=O)[C@H]2[C@@H](c3ccc(-c4ccc5c(c4)OCO5)c(OC)c3)N[C@@](CC(C)C)(C(=O)OC)[C@H]2C1=O,-4.88,,"6.51 µM [falling, single point]"
CCOc1ccccc1CNC(=O)CCCn1ccc2cc(S(=O)(=O)N3CCCC3)ccc21,-37.5,"16.4 µM [falling, single point]","13 µM [falling, partial curve]"
CCOC(=O)N/N=C(/C)c1cccc(-n2cnnn2)c1,-11.3,,"6.51 µM [falling, single point]"
O=[N+]([O-])c1ccccc1-c1cc(-c2ccccc2O)n[nH]1,,"4.11 µM [rising, single point]","2.31 µM [rising, single point]"
COc1ccc(NC(=O)CSCC(=O)N(C)Cc2cccc(OC)c2OC)cc1,25,"6.51 µM [rising, partial curve, poor fit]",
CCOCCCNC(=O)C(c1ccc(Cl)cc1)N1CCN(c2ccccc2)CC1 (stereo not given),30,"1.84 µM [rising, partial curve, poor fit]","32.6 µM [rising, single point]"

SMILES,cell number change [%],AC50 [1],AC50 [2]
CCOc1ccc(CCNC(=O)c2cnc(C)cn2)cc1OCC,20.9,,"5.8 µM [rising, partial curve, poor fit]"
COc1cccc(C(=O)Nc2nnc(S(=O)(=O)N3CCCC3)s2)c1,,,"4.61 µM [falling, full curve]"
COc1ccc(C(=O)c2c(-c3cccc(C)c3)oc3ccc(N4CCOCC4)cc23)cn1,4.21,,"0.58 µM [falling, single point]"
c1cncc(C2OCC3(CO2)COC(c2cccnc2)OC3)c1 (stereo not given),0.597,,"3.66 µM [falling, single point]"
CCn1c(/C=C2\C(=O)Nc3ccccc32)nc2ccccc2c1=O,1.37,,"0.651 µM [falling, partial curve, poor fit]"
CCOc1cc(C(=S)N2CCCCC2)ccc1OCC(=O)NCc1ccccc1,,,"6.51 µM [falling, single point]"
CCc1ccc(C2C(C(=O)O)c3ccccc3C(=O)N2C)cc1 (stereo not given),-55.8,"3.66 µM [falling, full curve]","29.1 µM [falling, single point]"
COc1ccccc1CN1CC(C(=O)N2CCCCO2)CCC1=O (stereo not given),2.59,,"20.6 µM [rising, partial curve]"
Cc1ccc(OCC(=O)Nc2nnc(S(=O)(=O)N3CCCCCC3)s2)cc1,15.9,,"29.1 µM [rising, single point]"
CN(C)C(CNC(=O)c1cc(S(=O)(=O)N(C)c2ccccc2)ccc1Cl)c1ccccc1 (stereo not given),25.5,"6.51 µM [rising, single point]",
Cc1nn(C(=O)c2ccco2)c(C)c1Br,3.47,,"4.61 µM [falling, single point]"
CN(CC(=O)Nc1ccc(Cl)c(C(F)(F)F)c1)C(=O)C1CCC1,,,"18.4 µM [rising, partial curve]"
COc1ccc(CCN(Cc2cc3cccc(C)c3[nH]c2=O)C(=O)N2CCCC2)cc1OC,4.92,,"0.58 µM [rising, single point]"
COc1ccc(OC)c(-c2nc3ccccc3nc2-c2ccccc2)c1,-8.02,,
O=S(=O)(O)c1cccc(N=Nc2c(O)ccc3ccccc23)c1,17.2,,
COc1ccc2nc(SCc3nc(N)nc(Nc4ccccc4)n3)[nH]c2c1,-13.6,,"10.3 µM [rising, partial curve]"
c1ccc(-c2noc(C3CCCCC3)n2)nc1,,"6.51 µM [rising, single point]",
COc1cc(/C=C2\CCCc3c2nc2ccccc2c3C(=O)O)cc(Br)c1O,-32.4,"32.6 µM [falling, single point]","6.51 µM [falling, single point]"
O=C(NCCN1CCOCC1)C1CCC(CNS(=O)(=O)c2ccccc2)CC1 (stereo not given),7.96,,"29.1 µM [falling, single point]"
COc1ccc([C@@H]2[C@@H]3C(=O)N(C(C)(C)C)C(=O)[C@@H]3[C@]3(C)C(=O)N(c4cccc(F)c4)C(=O)N23)cc1,8.74,,"29.1 µM [rising, single point]"

# Random excerpt: 2 entries already listed
SMILES,cell number change [%],AC50 [1],AC50 [2]
CCOc1cc(C(=S)N2CCCCC2)ccc1OCC(=O)NCc1ccccc1,,,"6.51 µM [falling, single point]"
CCn1c(/C=C2\C(=O)Nc3ccccc32)nc2ccccc2c1=O,1.37,,"0.651 µM [falling, partial curve, poor fit]"

# Remaining list, next part

SMILES,cell number change [%],AC50 [1],AC50 [2]
COc1ccccc1NC(=O)Nc1nc(CC(=O)NCc2ccccn2)cs1,,"1.84 µM [rising, partial curve]","1.84 µM [rising, partial curve]"
CC(=O)Nc1ccc(OCC(O)Cn2cccn2)cc1 (stereo not given),8.42,,
S=C(c1c[nH]c2ccccc12)N1CCCC1,4.72,,"0.651 µM [falling, single point]"
O=C(CCCn1c(=S)[nH]c2ccc(Br)cc2c1=O)NCc1ccccn1,-0.494,,"29.1 µM [falling, single point]"
Cc1cc([N+](=O)[O-])nn1Cc1noc(C(=O)NCCc2ccccn2)n1,7.21,,"0.58 µM [rising, single point]"
O=C(N1CCOCC1)N(Cc1ccccc1)c1ccccn1,-46.5,"1.3 µM [falling, partial curve]","0.13 µM [falling, full curve]"
CCCCn1c(N)c(N(CCOC)C(=O)C2CCN(C(=O)c3ccccc3C)CC2)c(=O)[nH]c1=O,-2.03,"0.146 µM [falling, full curve, poor fit]","0.651 µM [falling, single point]"
O=C(NCN1CCc2ccccc2C1)c1cnccn1,-1.62,,
COc1ccc(CCNC(=S)N2CCN(S(=O)(=O)c3cccc(F)c3)CC2)cc1,,,"0.082 µM [falling, single point]"
CC(C)(C)c1nnc(NS(=O)(=O)c2ccc([N+](=O)[O-])cc2)s1,0.702,,
CCCCCCCCCCCC(=O)NC(Cc1ccc(OC)c([N+](=O)[O-])c1)C(=O)O (stereo not given),-8.32,,"0.116 µM [falling, full curve, poor fit]"
CC(C)Cn1c(N)c(C(=O)COC(=O)c2cc(C3CC3)nc3ccccc23)c(=O)n(C)c1=O,-57.3,"20.6 µM [falling, partial curve]","13 µM [falling, partial curve]"
COCC(C)NC(=O)/C(=C/c1ccccc1)c1ccccc1 (stereo not given),16.8,,
CCOC(=O)c1c(NC(C)=O)sc(/C(C)=N/Nc2ccc(C(=O)O)cc2)c1C,5.79,,"0.517 µM [falling, partial curve, poor fit]"
Cc1ccc(Sc2cnc(N)nc2C)cc1,-29.6,,"0.231 µM [falling, full curve]"
CC(=O)Nc1ccc(N2C(=O)CSC2c2cccc([N+](=O)[O-])c2)cc1 (stereo not given),76.1,"23.1 µM [rising, single point]",
CCCN(CC(=O)Nc1ccccc1C)C(=O)c1ccc(C2SCCS2)cc1,31.9,"2.91 µM [rising, partial curve]","1.84 µM [rising, partial curve]"
COc1cccc(CNC(=O)CN2C(=O)CSc3ccc(S(=O)(=O)N4CCCCC4)cc32)c1,-24.2,"0.58 µM [rising, single point]","6.51 µM [rising, single point]"

# Structures listed so far containing a halogen, in the order listed:
SMILES,cell number change [%],AC50 [1],AC50 [2]
COc1cc(S(=O)(=O)N2CCCCCC2)c(OC)cc1Br,10.2,,"1.84 µM [falling, partial curve, poor fit]"
O=C(CN1CCN(Cc2ccccc2F)C1=O)NCCc1ccc(Cl)cc1,11.1,,"0.0731 µM [rising, full curve, poor fit]"
O=c1ccccn1Cc1c(F)cccc1Cl,46,"8.2 µM [rising, partial curve, poor fit]","6.51 µM [rising, single point]"
CCOCCCNC(=O)C(c1ccc(Cl)cc1)N1CCN(c2ccccc2)CC1 (stereo not given),30,"1.84 µM [rising, partial curve, poor fit]","32.6 µM [rising, single point]"
CN(C)C(CNC(=O)c1cc(S(=O)(=O)N(C)c2ccccc2)ccc1Cl)c1ccccc1 (stereo not given),25.5,"6.51 µM [rising, single point]",
Cc1nn(C(=O)c2ccco2)c(C)c1Br,3.47,,"4.61 µM [falling, single point]"
CN(CC(=O)Nc1ccc(Cl)c(C(F)(F)F)c1)C(=O)C1CCC1,,,"18.4 µM [rising, partial curve]"
COc1cc(/C=C2\CCCc3c2nc2ccccc2c3C(=O)O)cc(Br)c1O,-32.4,"32.6 µM [falling, single point]","6.51 µM [falling, single point]"
COc1ccc([C@@H]2[C@@H]3C(=O)N(C(C)(C)C)C(=O)[C@@H]3[C@]3(C)C(=O)N(c4cccc(F)c4)C(=O)N23)cc1,8.74,,"29.1 µM [rising, single point]"
O=C(CCCn1c(=S)[nH]c2ccc(Br)cc2c1=O)NCc1ccccn1,-0.494,,"29.1 µM [falling, single point]"
COc1ccc(CCNC(=S)N2CCN(S(=O)(=O)c3cccc(F)c3)CC2)cc1,,,"0.082 µM [falling, single point]"
